Data as given in the supplement of paper PMC4683952.
This is one part of the list. No stated cut-off is given here; in the data, active = 2 or more and inactive = the rest. Single values are uncertain here, since repeats match poorly.

What follows are compounds tested on Lgr5 (MarsCy1-Lgr5-EGFP, U2OS) (assay: cell-surface Lgr5 expression (SCi1 fluorescence, background-subtracted) relative to WT DMSO (fold of DMSO control); higher = more Lgr5 at the plasma membrane). Conditions: U2OS MarsCy1-Lgr5-EGFP stable; treatment time: overnight; library: ActiProbe-5K (TimTec); 25 µM.

Row | Structure (SMILES) | cell-surface Lgr5 expression
1 | O=c1oc2c3ccccc3oc(=O)c2c2ccccc12 | inactive: 1.35
2 | NC(=O)NCC(=O)NC(Cc1c[nH]cn1)C(=O)O (configuration not stated) | inactive: 1.2
3 | O=C1NCCN1C(=O)NC1CCCCC1 | inactive: 0.777
4 | N#C/C(=C1\CCCCCN1)c1nnc2n1CCCC2 | inactive: 0.871
5 | Clc1ccc(OCCNCC2CCCO2)cc1 (configuration not stated) | inactive: 1.44
6 | Cc1nc2ncccn2c1-c1csc(N)n1 | inactive: 1.36
7 | Cc1cn2c(nc1=O)OC1C(O)C(CO)OC12 (configuration not stated) | inactive: 1.1
8 | Nc1ccc2ncc(Br)cc2c1 | inactive: 0.878
9 | Nc1nonc1/C(=N\O)N1CCCCC1 | inactive: 1.16
10 | O=[N+]([O-])c1ccc(N2CCN3CCCC3C2)c([N+](=O)[O-])c1 (configuration not stated) | inactive: 1.09
11 | CC1(C)Oc2ccc([N+](=O)[O-])cc2O1 | inactive: 1.23
12 | O=C(CCCCCCCCC(=O)N/N=C/c1ccc([N+](=O)[O-])o1)N/N=C\c1ccc([N+](=O)[O-])o1 | inactive: 1.46
13 | c1ccc(C(Sc2ccccn2)c2ccccc2)cc1 | inactive: 1.12
14 | O=C(NCC1CCCO1)c1ccc(Br)o1 (configuration not stated) | inactive: 0.973
15 | OCc1cc(F)c(F)cc1Cl | inactive: 1.24
16 | CN1CCN(C(=O)C(=O)N2CCN(C)CC2)CC1 | inactive: 1.14
17 | Clc1ncnc2sc3c(c12)CCCC3 | inactive: 1.31
18 | OCC1OC(n2cnc3c(=S)nc[nH]c32)C(O)C1O (configuration not stated) | active: 2.09
19 | O=Cc1cc2cc3c4c(c2oc1=O)CCCN4CCC3 | inactive: 1.16
20 | Cl.NCC12CC3CC(CC(C3)C1)C2 | inactive: 0.844
21 | NC(=O)NN1C(=O)/C(=C\c2ccco2)SC1=S | inactive: 1.33
22 | O=c1oc(-c2cc3c(s2)CCCC3)ns1 | inactive: 1.33
23 | O=C1Nc2ccccc2/C1=c1/sc2nc3ccccc3n2c1=O | inactive: 1.11

Row | Structure (SMILES) | cell-surface Lgr5 expression
24 | O=[N+]([O-])c1ccc(Nc2nccs2)c([N+](=O)[O-])c1 | inactive: 1.47
25 | O=C1CCC(=O)N1CCCCCCN1C(=O)CCC1=O | inactive: 0.817
26 | [Br-].c1ccc(C[n+]2csc3ccccc32)cc1 | inactive: 1.28
27 | O=S(=O)(Nc1ccc(Cl)cc1Cl)c1ccc(Cl)cc1 | inactive: 1.09
28 | CSCCC(C(=O)O)N1C(=O)NC2NC(=O)NC21 (configuration not stated) | inactive: 1.2
29 | [O-][n+]1c2ccccc2[n+]([O-])c2cc(O)ccc21 | inactive: 1.09
30 | CCOC(CN1CCCCC1)OCC | inactive: 0.964
31 | CCN1C(=O)CS/C1=N\N1CCOCC1 | inactive: 1.06
32 | CCn1cc(Br)c(CN(C)C(=O)c2noc(C)c2Cn2nc(C)c([N+](=O)[O-])c2C)n1 | inactive: 1.13
33 | C=CCC(O)(CC=C)C(N)CCSC (configuration not stated) | inactive: 1.36
34 | CC1Cn2c(COc3ccccc3)nnc2S1 (configuration not stated) | inactive: 1.12
35 | COc1ccc(C2=Nn3c(nnc3-c3ccccc3F)SC2)cc1OC | inactive: 0.941
36 | N#Cc1c(NC(=O)CCn2cnnn2)sc2c1CCC2 | inactive: 1.13
37 | O=C1CCC(C(=O)NC2C3CC4CC(C3)CC2C4)=NN1 (configuration not stated) | inactive: 0.833
38 | N#Cc1cnc(S)nc1N | inactive: 1.01
39 | N[C@@H]1CS(=O)(=O)C[C@H]1O | inactive: 1.17
40 | OC1CC2CC1C1CCCC21 (configuration not stated) | inactive: 1.2
41 | O=[N+]([O-])c1ccc(C2OCOCC2O)cc1 (configuration not stated) | inactive: 1.2
42 | Nc1nonc1-c1noc(CN2CCOCC2)n1 | inactive: 1.19
43 | Sc1nnc(-c2ccncc2)n1/N=C/c1cccnc1 | inactive: 1.15
44 | C(=N/n1cnnc1)/c1ccc2c(c1)OCO2 | inactive: 0.892
45 | CC1(C)OC(C)(C)c2c1sc(N)c2C#N | inactive: 1.26
46 | COc1cc2c(cc1OC)C(CCCCCl)=NC(C)(C)C2 | inactive: 1.26

Some of the entries above in a different format.
Row,Structure (SMILES),cell-surface Lgr5 expression
26,[Br-].c1ccc(C[n+]2csc3ccccc32)cc1,inactive: 1.28
29,[O-][n+]1c2ccccc2[n+]([O-])c2cc(O)ccc21,inactive: 1.09
33,C=CCC(O)(CC=C)C(N)CCSC (configuration not stated),inactive: 1.36
40,OC1CC2CC1C1CCCC21 (configuration not stated),inactive: 1.2

Next part.

Row | Structure (SMILES) | cell-surface Lgr5 expression
47 | CC1(C)CC(N2C(=O)OC3(CCCCC3)C2(C)O)CC(C)(C)N1 (configuration not stated) | inactive: 1.16
48 | CNc1ccc2c(c1)[S]=c1cc(N)ccc1=N2.Cl | inactive: 1.54
49 | Fc1ccc(N2Cc3ccccc3C2)cc1 | inactive: 0.93
50 | CC(=O)OC1CCC2(C)C(=CCC3C4CC=C(C#N)C4(C)CCC32)C1 (configuration not stated) | inactive: 1.37
51 | CN1CN(Cc2ccccc2)CNC1=S | inactive: 1.24
52 | N#CCN(CC#N)S(=O)(=O)c1cc(Cl)ccc1Cl | inactive: 1.29
53 | Sc1nnc(C2CCCCC2)n1/N=C\c1cccs1 | inactive: 1.14
54 | Brc1ccc2[nH]c3c(c2c1)CCCCC3 | inactive: 0.989
55 | COc1ccc(NS(=O)(=O)N(C)C)cn1 | inactive: 1.14
56 | CCn1cc(Cl)c(/C=C\C(=O)c2cnn(C)c2)n1 | inactive: 0.276
57 | O=[N+]([O-])c1ccc2c(c1)n1cnnc1c1nncn21 | inactive: 0.885
58 | COC(=O)c1c(N)sc2c1CCC2 | inactive: 0.925
59 | O=C(O)C1C2C=CC(C2)C1C(=O)OCC1CCCO1 (configuration not stated) | inactive: 1.03
60 | O=c1sc2ccccc2c(Nc2ccc([N+](=O)[O-])cc2)c1[N+](=O)[O-] | inactive: 1.17
61 | Cc1cc(C)n(-c2nnc(-n3nc(C)cc3C)nn2)n1 | inactive: 1.2
62 | c1ccc(-c2ccc3ccccc3n2)nc1 | inactive: 0.983
63 | N#CC1=C(N)Oc2[nH]nc(-c3cccs3)c2C1c1cccs1 (configuration not stated) | inactive: 0.757
64 | Cc1cc(C)c(S(=O)(=O)NCC2CCCO2)c(C)c1 (configuration not stated) | inactive: 0.844
65 | CC(C)N(c1snnc1N)C(C)C | inactive: 0.861
66 | Cc1cc(C)n(-c2nnc(N)nn2)n1 | inactive: 1.4
67 | O=c1oc2cc(OCCO)ccc2c2c1CCC2 | inactive: 1.41
68 | Cc1cc(C(F)F)nc(S[C@H]2C/C(=N/O)[C@@H]3OC[C@H]2O3)n1 | inactive: 1.16
69 | COc1cc2c(cc1OC)NC(=O)C2 | inactive: 1.35

Row | Structure (SMILES) | cell-surface Lgr5 expression
70 | CCC(C)C(=O)Nc1nnc(CC(C)(C)C)s1 (configuration not stated) | inactive: 1.33
71 | Cc1cc(C)n(N)c(=O)c1C(N)=O | inactive: 1.09
72 | C1CCCN(CC2CCCCN2)CC1 (configuration not stated) | inactive: 1.31
73 | C=CCNc1nc2nc(N)nc(N)c2s1 | inactive: 1.16
74 | Cc1ccc2c(c1)-c1c(ssc1=S)C(C)(C)N2C | inactive: 1.38
75 | c1ccc(Cn2c(-c3ccccc3)cs/c2=N\c2ccccc2)cc1 | inactive: 0.814
76 | Fc1ccc(Cn2nnc(-c3cccnc3)n2)cc1 | inactive: 1.36
77 | Cc1nc(NC(=N)N)nc2ccccc12 | active: 2.38
78 | N#CC1=C(N)OC2=C(CCC/C2=C/c2cccs2)C1c1cccs1 (configuration not stated) | inactive: 0.625
79 | NC(=[NH2+])SCc1ccc(Cl)cc1Cl.[Cl-] | inactive: 1.14
80 | CS(=O)(=O)Nc1ccc2c3c(cccc13)CC2 | inactive: 1.31
81 | Cc1nn2cc(-n3cc([N+](=O)[O-])cn3)cnc2c1[N+](=O)[O-] | inactive: 1.15
82 | Cc1ccc(CN2CCNCC2CCO)o1 (configuration not stated) | inactive: 1.21
83 | Cc1cc(=O)oc(C)c1C(=O)O | inactive: 1.27
84 | CNc1nc(N)c(C(=O)C(C)(C)C)s1 | inactive: 1.24
85 | O=C(O)COCC12CC3CC(CC(C3)C1)C2 | inactive: 1.26
86 | O=S(=O)(c1ccc(Oc2ccc(Br)cc2)cc1)N1CCOCC1 | inactive: 0.989
87 | CCc1sc(/C=C(/C#N)C(N)=S)cc1Br | inactive: 1.01
88 | CCCCn1c(C23CC4CC(CC(C4)C2)C3)cn2c3c(=O)n(C)c(=O)n(C)c3nc12 | inactive: 1
89 | NC(=O)c1c(NC(=O)C2CCCCC2)sc2c1CCCC2 | inactive: 1.1
90 | CC(=O)c1c(C)[nH]c(C(=O)OC(C)(C)C)c1C | inactive: 0.972
91 | O=C(O)CCc1cn(CCC(=O)O)cn1 | inactive: 1.24
92 | Nc1ccc2nn(-c3ccc(Br)cc3)nc2c1 | inactive: 0.971

Shown with tabs: entries from further up
Row	Structure (SMILES)	cell-surface Lgr5 expression
72	C1CCCN(CC2CCCCN2)CC1 (configuration not stated)	inactive: 1.31
79	NC(=[NH2+])SCc1ccc(Cl)cc1Cl.[Cl-]	inactive: 1.14

Further structures follow:

Row | Structure (SMILES) | cell-surface Lgr5 expression
93 | C(=N\c1ccccn1)/c1cccc2ccccc12 | inactive: 1.31
94 | O=C(Nc1nccs1)C(=S)N1CCOCC1 | inactive: 1.22
95 | Nc1c(-c2ccccc2)no[n+]1[O-] | inactive: 1.36
96 | CN1C(=O)Cc2cc(Br)ccc21 | inactive: 1.19
97 | O=c1[nH]cccc1NS(=O)(=O)c1ccc(F)cc1 | inactive: 1.03
98 | CC(C)[Si]1(C(C)C)OCC2O[C@@H](n3ccc(N)nc3=O)C(O)C2O[Si](C(C)C)(C(C)C)O1 (some centres not stated) | inactive: 1.46
99 | Cc1cc(C)n(Cn2nc(N)cc2C)n1 | inactive: 1.16
100 | Brc1ccc(-n2cnnn2)c2ncccc12 | inactive: 1.21
101 | CCC(CCC(C)O)CC1CCCO1 (configuration not stated) | inactive: 1.4
102 | O=C(Nc1nc2c(s1)CCCC2)C1CC(=O)N(C2CCCCC2)C1 (configuration not stated) | inactive: 1.2
103 | CCc1ccc(/C=N/n2c(S)nnc2-c2ccc(C(C)(C)C)cc2)cc1 | inactive: 0.817
104 | O=C(CCCCCCCC(=O)N/N=C/c1ccc([N+](=O)[O-])o1)N/N=C\c1ccc([N+](=O)[O-])o1 | inactive: 1.36
105 | COc1c(C)c(C)c(OC)c(S(=O)(=O)N2CCCCC2)c1C | inactive: 0.98
106 | CSc1sc(SC)c(CO)c1CO | inactive: 0.929
107 | CC1CC2=C(OC(N)=C(C#N)C2c2cccs2)/C(=C/c2cccs2)C1 (configuration not stated) | inactive: 1.21
108 | OC1CCc2ccccc2C1 (configuration not stated) | inactive: 1.2
109 | Nn1nnnc1Nc1ccccc1 | inactive: 0.913
110 | Cc1ccc(/C=C2/SC(=O)NC2=S)o1 | inactive: 1.01
111 | Cc1cc(C(C)(C)C)cc(C)c1CC1=NCCN1 | inactive: 1.37
112 | CCn1ncc(Cn2cc(NS(=O)(=O)c3c(C)nn(C(F)F)c3C)cn2)c1C | inactive: 1.07
